Results taken from publication PMC12370185.
The other results are listed elsewhere or left out. For some of these results: At the low end of the ranking the order means little.

Assays:
Conditions in all cases: 10 mM Tris-Cl pH 7.5, 50 mM NaCl, 1 mM DTT, 0.25 mg/ml BSA, 2 mM MgCl2, 0.025% Nonidet P-40, 5% glycerol; 28 nM nucleosome library; 10 min on ice then 30 min …; high values mean tight binding; double strand, one strand shown
KLF4 + histone octamer = assay: EMSA with sequencing
SOX2 + histone octamer = assay: EMSA with sequencing
[1] = system: c-MYC + MAX + histone octamer; assay: EMSA with sequencing
OCT4 + histone octamer = assay: Pioneer-seq (competitive nucleosome EMSA with sequencing)

| Sequence | binding signal (log2 relative supershift) (KLF4 + histone octamer) | binding signal (log2 relative supershift) (SOX2 + histone octamer) | binding signal (log2 relative supershift) [1] | binding signal (log2 relative supershift) (OCT4 + histone octamer) |
| --- | --- | --- | --- | --- |
| GATGGACCCTATACGCGGCCTGTTTGTTTAAGGCAGCGTATGGCTCTGTCGTTCAGGGTGGAGTGCAGTGGCGCAATCATGACTCACTGCAGCCTTGAACTCCTGAATGCCGCCTTGAATTCCTGGATTCCAGCGACTCTCCCACCTCAACCTCCTGAGTAGCTGAGACCAAAGGCACGTGCCACACTCCCGGCTAATTTATTTTTATTTTGCCAGTCGGATAGTGTTCC | 1.44 | 0.193 | 0.616 | -0.205 |
| GATGGACCCTATACGCGGCCCAGGCTAGTGAGGAAAATGAGGGAATGAGAAAGGAGGATGAGGAGGGCTTTGAGGGTGATGAGTCAGATGCAGGCACAGCCTTGGTAGTGGGTTTTAGTCCGTGCTCTGAGATGCCCAGTTTTTCATGAGAAAGAAAAGCATGTATGCCCACCCAGAAGAATGATTGTTAAGACAGGCTAAGAATATTGATGCCAGTCGGATAGTGTTCC | 2.32 | 1.48 | 0.376 | -0.0385 |
| GATGGACCCTATACGCGGCTCAAACATCACCAGTGAAACACATGGGCAGCATCCAGGGACTAACACAGGGCAAATGTTTCCTGTGTACCGAAAGGCATAATTTGCAACACGAAGGAACATTATCTCCATGAACACAAGGCTGCTCTCCTAGATGAATGAGGGATAGGACCGTGCAGTTCAAGTCCACTCAAGGGTGGCACAATCAGTGTCTGCCAGTCGGATAGTGTTCC | 2.13 | 0.818 | 0.725 | -0.393 |
| GATGGACCCTATACGCGGCACAGACACACAGATGCATGCACGCGCCCACACACACACACACACACACAAAACATGTGCTCCAGCTCTGCACATTCCCTCCTGCAAATTCTGATTGTCAAGGTGCTGAGGGTGTGGACAGAAGTTGTCTTTGGGTGGGTGAGATTGTAGGTGGGGATTTTTTTATTTCCTTTCTTTGCTTGTCTGTATTTTTGCCAGTCGGATAGTGTTCC | 2.5 | 1.45 | 0.466 | -0.674 |
